Results taken from patent US7770577B2, “Methods and devices for treating lung dysfunction” (priority 2001, dated 2010).

Test system: non-CF airway epithelial cell cultures
Assay: SCN− efflux / apical accumulation in non-CF airway epithelial air-liquid interface cultures
Assay type: cell-based, human
Description: J. Respir. […] Experiments comparing non-CF and CF cells were performed with cultures grown simultaneously and matched in passage number, the number of cells plated, and days in culture. […] To initiate experiments, apical surfaces of the cultures were rapidly washed three times with Dulbecco's PBS (50 μl for 6.5 mm filters or 500 μl for 24 mm filters) containing 100 μM amiloride. Following a third wash, additional aliquots were placed on the apical surface for sequential 2 min incubations at 37° C. in humidified 5% CO2.
Bronchial epithelial cells were obtained from either CF or non-CF lungs at the time of transplant or organ donation. Cells were passaged twice (thereby de-differentiated) and then cultured at an air-liquid interface for re-differentiation. […] J. Respir. […] Following three rapid PBS washes of the apical surface, additional PBS aliquots were placed on the apical surface for sequential 2 min incubations. […] Airway epithelial cell cultures from three separate CF patients were compared to three non-CF control cultures.

[1] = non-CF cultures, direct sampling 2-5 μl, 0.07 mM basolateral

N#CS [SCN^−, thiocyanate]
[SCN^−] in undiluted apical surface liquid [1]: 0.4 mM | concentration of SCN^− in apical surface liquid over basolateral media [1]: ~6 fold | total SCN^− recovered in initial PBS wash of apical surface, non-CF compared to CF cultures (overnight incubation with 14C-SCN− in basolateral media): 11 fold
